In assay [1] the target is polyoma-tagged Brr2-Δ120 (S. cerevisiae) (UniProt P32639). Description: co-IP; polyoma-tagged Brr2 immunoprecipitated with an anti-polyoma antibody from yeast whole cell lysate; associated proteins by Western blot.
In assay [2] the target is polyoma-tagged WT Brr2 (S. cerevisiae) (UniProt P32639). Described as above.

Amino acid sequences for entries named in this document (tags omitted). A change or cut given only in a name is not applied to a line headed by its entry. Chains listed by the source or under a name are the forms on record and can include a tag or linker.
UniProt P32639: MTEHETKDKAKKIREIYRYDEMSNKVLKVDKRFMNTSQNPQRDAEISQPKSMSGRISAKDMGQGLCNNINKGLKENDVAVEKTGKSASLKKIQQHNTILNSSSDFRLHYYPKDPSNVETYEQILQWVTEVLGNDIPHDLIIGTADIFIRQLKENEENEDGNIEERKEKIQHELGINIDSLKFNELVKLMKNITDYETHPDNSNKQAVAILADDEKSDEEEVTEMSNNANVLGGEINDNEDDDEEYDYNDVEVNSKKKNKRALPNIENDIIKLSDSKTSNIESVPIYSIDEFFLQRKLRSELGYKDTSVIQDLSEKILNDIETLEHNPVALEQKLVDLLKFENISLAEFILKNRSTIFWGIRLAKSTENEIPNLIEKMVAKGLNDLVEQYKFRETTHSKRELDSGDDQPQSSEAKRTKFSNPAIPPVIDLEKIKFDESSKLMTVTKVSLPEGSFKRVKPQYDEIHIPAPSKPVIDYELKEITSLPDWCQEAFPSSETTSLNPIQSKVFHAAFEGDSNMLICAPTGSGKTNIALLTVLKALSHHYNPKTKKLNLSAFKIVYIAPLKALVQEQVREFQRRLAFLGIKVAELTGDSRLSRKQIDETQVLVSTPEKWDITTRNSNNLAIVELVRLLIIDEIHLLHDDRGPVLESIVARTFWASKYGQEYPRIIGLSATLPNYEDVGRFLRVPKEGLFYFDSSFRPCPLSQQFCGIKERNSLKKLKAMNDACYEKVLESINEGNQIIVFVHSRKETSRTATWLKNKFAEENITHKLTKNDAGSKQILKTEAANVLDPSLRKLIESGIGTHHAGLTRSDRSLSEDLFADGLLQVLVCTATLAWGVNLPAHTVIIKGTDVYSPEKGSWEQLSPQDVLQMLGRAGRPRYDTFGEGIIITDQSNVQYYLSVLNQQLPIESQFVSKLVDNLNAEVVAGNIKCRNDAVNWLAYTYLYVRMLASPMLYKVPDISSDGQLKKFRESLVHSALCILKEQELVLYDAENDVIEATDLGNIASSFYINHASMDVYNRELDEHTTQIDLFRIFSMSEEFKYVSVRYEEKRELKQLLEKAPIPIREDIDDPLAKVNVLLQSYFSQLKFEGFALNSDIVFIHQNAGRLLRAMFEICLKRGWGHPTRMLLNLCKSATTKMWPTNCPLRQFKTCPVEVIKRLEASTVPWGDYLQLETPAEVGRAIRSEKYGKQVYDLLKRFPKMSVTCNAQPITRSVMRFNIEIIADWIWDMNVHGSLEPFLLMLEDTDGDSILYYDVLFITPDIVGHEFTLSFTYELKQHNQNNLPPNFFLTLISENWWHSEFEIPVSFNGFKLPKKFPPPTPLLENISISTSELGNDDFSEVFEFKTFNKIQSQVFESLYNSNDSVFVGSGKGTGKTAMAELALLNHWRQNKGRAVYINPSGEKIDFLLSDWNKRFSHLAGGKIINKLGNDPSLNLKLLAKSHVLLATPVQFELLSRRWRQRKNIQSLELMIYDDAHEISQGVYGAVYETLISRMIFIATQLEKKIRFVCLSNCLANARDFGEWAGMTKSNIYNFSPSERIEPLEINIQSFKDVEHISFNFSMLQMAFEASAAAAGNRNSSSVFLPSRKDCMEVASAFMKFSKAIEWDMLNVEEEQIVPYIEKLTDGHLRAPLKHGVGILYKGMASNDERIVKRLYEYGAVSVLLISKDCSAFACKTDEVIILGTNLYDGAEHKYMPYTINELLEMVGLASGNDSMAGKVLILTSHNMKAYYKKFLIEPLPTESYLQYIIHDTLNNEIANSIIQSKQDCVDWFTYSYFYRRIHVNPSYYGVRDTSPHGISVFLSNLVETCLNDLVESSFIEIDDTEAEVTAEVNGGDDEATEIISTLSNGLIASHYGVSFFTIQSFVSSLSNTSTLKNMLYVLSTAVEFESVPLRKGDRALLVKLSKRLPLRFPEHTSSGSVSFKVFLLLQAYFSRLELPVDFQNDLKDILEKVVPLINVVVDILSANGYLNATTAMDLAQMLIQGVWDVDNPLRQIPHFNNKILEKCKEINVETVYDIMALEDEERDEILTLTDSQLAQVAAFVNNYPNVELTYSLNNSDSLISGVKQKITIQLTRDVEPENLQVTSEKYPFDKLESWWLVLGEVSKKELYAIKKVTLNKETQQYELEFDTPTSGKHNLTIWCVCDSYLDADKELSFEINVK
polyoma-tagged Brr2-Δ120 (P32639, form named): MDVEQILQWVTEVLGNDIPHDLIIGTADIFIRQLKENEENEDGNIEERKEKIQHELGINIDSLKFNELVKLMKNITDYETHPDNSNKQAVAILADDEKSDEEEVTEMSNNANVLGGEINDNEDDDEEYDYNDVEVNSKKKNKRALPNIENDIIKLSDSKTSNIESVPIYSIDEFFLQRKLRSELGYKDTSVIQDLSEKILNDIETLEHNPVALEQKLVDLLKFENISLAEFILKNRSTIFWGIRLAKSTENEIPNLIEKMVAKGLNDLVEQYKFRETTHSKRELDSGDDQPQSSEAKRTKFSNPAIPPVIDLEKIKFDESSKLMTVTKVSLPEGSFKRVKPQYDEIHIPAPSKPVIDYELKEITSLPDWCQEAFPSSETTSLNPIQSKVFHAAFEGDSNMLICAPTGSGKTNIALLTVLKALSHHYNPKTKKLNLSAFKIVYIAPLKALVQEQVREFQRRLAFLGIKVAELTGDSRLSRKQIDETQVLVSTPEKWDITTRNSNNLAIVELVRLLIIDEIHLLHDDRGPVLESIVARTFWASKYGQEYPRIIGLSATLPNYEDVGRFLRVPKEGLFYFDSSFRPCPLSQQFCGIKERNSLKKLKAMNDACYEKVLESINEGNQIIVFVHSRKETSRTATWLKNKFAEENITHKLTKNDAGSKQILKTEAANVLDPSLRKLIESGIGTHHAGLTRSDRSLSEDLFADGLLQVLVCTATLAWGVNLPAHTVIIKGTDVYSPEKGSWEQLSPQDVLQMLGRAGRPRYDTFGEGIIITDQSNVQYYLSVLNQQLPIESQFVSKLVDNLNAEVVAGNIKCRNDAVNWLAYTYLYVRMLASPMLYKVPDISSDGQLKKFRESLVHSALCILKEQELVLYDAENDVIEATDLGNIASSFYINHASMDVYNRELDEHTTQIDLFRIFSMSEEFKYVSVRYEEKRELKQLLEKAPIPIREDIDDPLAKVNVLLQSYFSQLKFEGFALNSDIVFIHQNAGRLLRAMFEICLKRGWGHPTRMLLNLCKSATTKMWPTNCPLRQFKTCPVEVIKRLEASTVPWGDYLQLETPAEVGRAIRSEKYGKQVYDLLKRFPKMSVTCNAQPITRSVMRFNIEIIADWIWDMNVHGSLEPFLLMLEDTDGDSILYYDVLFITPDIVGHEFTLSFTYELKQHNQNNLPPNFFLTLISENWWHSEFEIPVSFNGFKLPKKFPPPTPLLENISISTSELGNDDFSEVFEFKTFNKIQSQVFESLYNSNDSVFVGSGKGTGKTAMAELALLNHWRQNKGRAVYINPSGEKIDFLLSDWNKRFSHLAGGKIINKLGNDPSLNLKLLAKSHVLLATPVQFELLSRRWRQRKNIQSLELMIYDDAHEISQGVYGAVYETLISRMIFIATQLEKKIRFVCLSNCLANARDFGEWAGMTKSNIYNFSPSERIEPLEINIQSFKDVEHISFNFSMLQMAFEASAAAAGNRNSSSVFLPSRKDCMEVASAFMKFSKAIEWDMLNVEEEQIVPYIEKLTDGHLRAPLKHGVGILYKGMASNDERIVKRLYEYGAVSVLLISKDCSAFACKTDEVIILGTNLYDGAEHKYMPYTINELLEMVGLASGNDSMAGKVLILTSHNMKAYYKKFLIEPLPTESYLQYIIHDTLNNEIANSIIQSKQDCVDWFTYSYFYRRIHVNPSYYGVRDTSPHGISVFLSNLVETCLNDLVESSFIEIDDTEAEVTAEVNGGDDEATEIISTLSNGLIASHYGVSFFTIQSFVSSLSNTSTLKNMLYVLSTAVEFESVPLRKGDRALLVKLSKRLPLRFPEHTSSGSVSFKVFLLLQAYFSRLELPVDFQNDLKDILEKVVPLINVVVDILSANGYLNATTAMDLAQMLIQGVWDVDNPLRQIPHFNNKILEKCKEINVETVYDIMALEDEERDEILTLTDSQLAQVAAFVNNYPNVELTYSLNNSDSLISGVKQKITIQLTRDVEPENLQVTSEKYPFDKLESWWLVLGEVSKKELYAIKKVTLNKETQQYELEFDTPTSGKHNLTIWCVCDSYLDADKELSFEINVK

Results are given in words; binding and its absence hold for the method and conditions named. Binding seen in cells or lysates may run through a third protein. Some binding calls cover weakened binding; strength is not graded here.

B1: Snu114 (protein, UniProt P36048 1-1008)
chain: MEGDDLFDEFGNLIGVDPFDSDEEESVLDEQEQYQTNTFEGSGNNNEIESRQLTSLGSKKELGISLEHPYGKEVEVLMETKNTQSPQTPLVEPVTERTKLQEHTIFTQLKKNIPKTRYNRDYMLSMANIPERIINVGVIGPLHSGKTSLMDLLVIDSHKRIPDMSKNVELGWKPLRYLDNLKQEIDRGLSIKLNGSTLLCTDLESKSRMINFLDAPGHVNFMDETAVALAASDLVLIVIDVVEGVTFVVEQLIKQSIKNNVAMCFVINKLDRLILDLKLPPMDAYLKLNHIIANINSFTKGNVFSPIDNNIIFASTKLGFTFTIKEFVSYYYAHSIPSSKIDDFTTRLWGSVYYHKGNFRTKPFENVEKYPTFVEFILIPLYKIFSYALSMEKDKLKNLLRSNFRVNLSQEALQYDPQPFLKHVLQLIFRQQTGLVDAITRCYQPFELFDNKTAHLSIPGKSTPEGTLWAHVLKTVDYGGAEWSLVRIYSGLLKRGDTVRILDTSQSESRQKRQLHDISKTETSNEDEDEDDETPSCEVEEIGLLGGRYVYPVHEAHKGQIVLIKGISSAYIKSATLYSVKSKEDMKQLKFFKPLDYITEAVFKIVLQPLLPRELPKLLDALNKISKYYPGVIIKVEESGEHVILGNGELYMDCLLYDLRASYAKIEIKISDPLTVFSESCSNESFASIPVSNSISRLGEENLPGLSISVAAEPMDSKMIQDLSRNTLGKGQNCLDIDGIMDNPRKLSKILRTEYGWDSLASRNVWSFYNGNVLINDTLPDEISPELLSKYKEQIIQGFYWAVKEGPLAEEPIYGVQYKLLSISVPSDVNIDVMKSQIIPLMKKACYVGLLTAIPILLEPIYEVDITVHAPLLPIVEELMKKRRGSRIYKTIKVAGTPLLEVRGQVPVIESAGFETDLRLSTNGLGMCQLYFWHKIWRKVPGDVLDKDAFIPKLKPAPINSLSRDFVMKTRRRKGISTGGFMSNDGPTLEKYISAELYAQLRENGLVP
Regarding B1, the binding result in assay [1] and in assay [2] was “binds” each time.
